Publication PMC6773865, “Functional recruitment of dynamin requires multimeric interactions for efficient endocytosis” (Nature Communications, 2019)
No constants are given. Whether binding was seen depends on the method and setting. Tags and fused reporters may be left off the sequences shown.

Target: SUMO-amphSH3 (SH3 domain of murine amphiphysin1 fused to the small ubiquitin-like modifier) (murine) (UniProt Q7TQF7)
Experiment: SEC; analytical size exclusion chromatography, Superdex200 Increase 10/300 GL, PBS + 0.01% Tween-20, 0.75 mL/min; both purified

binding: no binding
B1: SUMO-amphSH3 (SH3 domain of murine amphiphysin1 fused to the small ubiquitin-like modifier) (domain or fragment, UniProt Q7TQF7 607-686)
chain: TQELPPGFLYKVETLHDFEAANSDELNLQRGDVVLVVPSDSEADQDAGWLVGVKESDWLQYRDLATYKGLFPENFTRRLE
